According to publication PMC11094575:
These are yes or no findings as the source states them, for the method shown. In cells and extracts the contact can be indirect. Some results given as binding are weak or reduced against the parent protein; the word gives no strength.

How the values were obtained:
[1] = biological target: T1, ID1 (human (endogenous in PAH sPASMCs)) (UniProt P41134); experiment: proximity ligation; endogenous in-situ interactions in human PAH sPASMCs
T1 sequence: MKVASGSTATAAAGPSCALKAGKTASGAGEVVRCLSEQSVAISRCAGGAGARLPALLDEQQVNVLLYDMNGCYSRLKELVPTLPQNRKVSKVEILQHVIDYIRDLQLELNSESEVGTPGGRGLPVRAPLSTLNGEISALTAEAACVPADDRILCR

[2] = biological target: T2, ID3 (human (endogenous in PAH sPASMCs)) (UniProt Q02535); experiment: as above
T2 sequence: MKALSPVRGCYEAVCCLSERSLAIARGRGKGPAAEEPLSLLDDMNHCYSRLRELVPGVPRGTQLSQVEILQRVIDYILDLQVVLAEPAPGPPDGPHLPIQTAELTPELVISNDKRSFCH

B1: HES‐5 (protein, UniProt Q5TA89 1-166)
chain: MAPSTVAVELLSPKEKNRLRKPVVEKMRRDRINSSIEQLKLLLEQEFARHQPNSKLEKADILEMAVSYLKHSKAFVAAAGPKSLHQDYSEGYSWCLQEAVQFLTLHAASDTQMKLLYHFQRPPAAPAAPAKEPKAPGAAPPPALSAKATAAAAAAHQPACGLWRPW
Q: Which binding [1] does the source give for B1 here?
A: binds

Q: And the binding [2]?
A: binds
